Test system: B16 murine melanoma cells
Test: MTT cell viability assay on B16 cells
Format: cell-based, mouse
Description: Human fibroblast cells (BJ-ATCC CRL-2522, USA) were grown in minimal essential medium (MEM) supplemented with 2 mM L-Glutamine, 10% fetal calf serum (FCS), 100 units/mL of penicillin, and 100 µg/mL of streptomycin at 37 °C in a humidified incubator under an atmosphere containing 5% CO2. Mouse melanoma cells (B16-ATCC CRL-6475, USA) were grown in DMEM (Dulbecco’s Modified Eagle Medium) supplemented with reagents like MEM. All cell cultivation media and reagents were purchased from Biochrom AG (Berlin, Germany) and Sigma-Aldrich (Darmstadt, Germany).
Cell viability was evaluated using the MTT assay (3-(4,5-dimethylthiazol-2-yl)-2,5-diphenyltetrazolium bromide) as previously described. Briefly, BJ and B16 cells were seeded in 96-well plates at densities of 10,000 cells/well and 7000 cells/well and further cultured in the medium for 24 h. The next day, the investigated compounds were added at a concentration of 1 to 25 μM for 24 and 48 h. The cells cultivated in medium without the studied samples served as negative controls. After incubation for the desired times, the medium was replaced with MTT solution (1 mg/mL) and incubated for an additional 4 h at 37 °C. Finally, the medium was collected, and DMSO was used to dissolve the insoluble formazan product. A Mithras 940 (Berthold, Bad Wildbad, Germany) plate reader was used to measure the absorbance of the samples at 570 nm. The data were corrected for background, and the percentage of viable cells was obtained using the following equation:Cell viability = [(A570 of treated cells)/(A570 of untreated cells)] × 100 (%)
Half-maximal inhibitory concentration (IC50) was determined by fitting the data with a sigmoidal logistic function using Origin 8.1 (Microcal Inc., Northampton, MA, USA) software.

Row | Structure (SMILES) | therapeutic index (TI) (BJ versus B16, 24 h) | therapeutic index (TI) (BJ versus B16, 48 h)
1 | CC(=O)C=C([O-])c1ccccc1.[Cu+2].[O-][Cl+3]([O-])([O-])[O-].c1cnc2c(c1)ccc1cccnc12 [Compound (1), [Cu(phen)(bzac)(ClO4)]] | 1.13 | 1.27
2 | CC(=O)C=C([O-])c1ccccc1.O.O=[N+]([O-])[O-].[Cu+2].c1cnc2c(c1)ccc1cccnc12 [Compound (2), [Cu(phen)(bzac)(NO3)]⋅H2O] | 1.83 | 1.72
3 | CC(=O)C=C([O-])c1ccccc1.[Cu+2].[O-][Cl+3]([O-])([O-])[O-].c1ccc(-c2ccccn2)nc1 [Compound (3), [Cu(bpy)(bzac)]ClO4] | 1.32 | 2.24
4 | CC(=O)C=C([O-])c1ccccc1.O=[N+]([O-])[O-].[Cu+2].c1ccc(-c2ccccn2)nc1 [Compound (4), [Cu(bpy)(bzac)(NO3)]] | 1.82 | 2.19
